Here are results for 60 compounds from PubChem BioAssay AID2685 (National Center for Advancing Translational Sciences (NCATS), 2010).

The assay is described as follows: qHTS Assay for Lipid Storage Modulators in Drosophila S3 Cells.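 On cell number change: cells counted by Cell Tracker Red CMTPX staining in the red channel.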 The settings on record: BODIPY lipid droplet fluorescence, 18-24 h; for cell number change: measured here: cell count max response, cells fed with added oleic acid. The method, boiled down:
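Drosophila S3 cells loaded with oleic acid (400 uM, as added) and compounds at several concentrations; lipid droplets imaged by 488-nm laser-scanning cytometry, 500–530 nm intensity and object ratio to cell channel. Percent activity normalized to 20 uM Triacsin C.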

Where [1] appears, read: measured here: lipid fluorescence (Fed channel) AC50, cells fed with added oleic acid.
Setting [2] is: measured here: cell number channel AC50, cells fed with added oleic acid.

The other results are listed elsewhere or left out. The main result of the screen is listed elsewhere. These columns were measured beside it and carry no call. Compounds called inactive in the main read-out are mostly missing here. The note in brackets gives the kind of curve behind each potency; many fits are weak.

As for `O=C(Nc1ccc(CN2CCOCC2)cc1)c1cc(Br)ccc1Cl`, the cell number change amounted to 17.5%. Under setting [1], the AC50 is 29.1 µM [rising, single point].
On to `CCCn1c(NC(=O)c2cccc(S(=O)(=O)N3CCCC3)c2)nc2ccccc21`, for which, under setting [1], the AC50 was 25.9 µM [falling, single point].
For the compound `O=C(c1cccs1)N(Cc1nc2sc3c(c2c(=O)[nH]1)CCCC3)C1CCCC1`, the cell number change is -36.6%. Moreover, the AC50 under setting [2] was 29.1 µM [falling, single point]. For the same compound, the AC50 under setting [1] is 16.4 µM [falling, partial curve].
In the case of `COc1ccccc1N1C(=O)N(CC(=O)C(C)(C)C)c2ccccc2S1(=O)=O`, the cell number change came to 10.6%. Moreover, the AC50 under setting [1] is 11.6 µM [rising, single point].
Regarding `c1ccc(CCn2nnnc2C(c2cccnc2)N2CCN(c3ccccc3)CC2)cc1` (stereo not drawn), the cell number change was 31.1%. For the same compound, under setting [2], the AC50 was 1.16 µM [rising, partial curve, poor fit]. Further, the AC50 under setting [1] is 6.51 µM [rising, partial curve].
Regarding `O=C(CCn1c(=S)[nH]c2cc3c(cc2c1=O)OCO3)NCc1ccccc1Cl`, the cell number change is -12.5%.
Regarding `CCN(CC)S(=O)(=O)c1cc(NS(=O)(=O)c2cccc(C(=O)O)c2)ccc1C`, the cell number change is 5.63%.
Same read-out and setting: next, `CC(C)OC(=O)C(C)Oc1ccc(C(=O)NCCc2ccccc2)cc1` (stereo not drawn): 11.9%.
As to `O=C(Nc1nnc(-c2ccco2)s1)C1CCN(S(=O)(=O)c2ccc(Cl)cc2)CC1`, the cell number change was -1.58%.
Same read-out and setting: next, `COC(=O)c1ccc(Oc2cc(C)nc(SC)n2)cc1`: -20.1%.
As for `COc1cc(C(=O)NNC(=S)NC(=O)c2ccc3c(c2)OCO3)cc(OC)c1OC`, the cell number change is 32.9%. Moreover, under setting [1], the half-maximal activity concentration (AC50) is 29.1 µM [rising, single point].
As for `CCCCC(CC)COC(=O)c1ccc(N(C)C)cc1` (stereo not drawn), the cell number change was 22.1%. Besides, the AC50 under setting [1] is 9.2 µM [rising, partial curve, poor fit].
As to `O=C(NCc1cccnc1)C1CCCN(S(=O)(=O)c2ccc(Br)cc2)C1` (stereo not drawn), the cell number change came to 3.11%. Further, under setting [1], the AC50 was 18.4 µM [rising, partial curve].
On to `O=C(Nc1ccc(Cl)cn1)C1CCCN1S(=O)(=O)c1ccccc1` (stereo not drawn), for which the cell number change was -16.4%. Besides, the AC50 under setting [1] was 0.00461 µM [falling, full curve, poor fit].
With `Cc1ccccc1NC(=O)NCC1CCCO1` (stereo not drawn), the cell number change was found to be 0.844%. In addition, the AC50 under setting [1] was 0.651 µM [rising, single point].
With `CN(C)S(=O)(=O)c1ccc(C(=O)NCC(C)(C)CN=C2NS(=O)(=O)c3ccccc32)cc1`, the cell number change came to 11.7%.
For `CN(C)CCNC(=O)c1ccc(-c2nn(C)c(=O)c3ccccc23)cc1`, the cell number change was -4.45%. In addition, the AC50 under setting [2] is 0.651 µM [falling, single point]. Moreover, under setting [1], the AC50 is 2.31 µM [falling, partial curve].
`Cc1cccc(NC2SC(=O)NC2=O)c1` (stereo not drawn): the cell number change is -26.5%.
As for `Cc1ccc(C(c2nnnn2C2CCCCC2)N2CCc3ccccc32)cc1` (stereo not drawn), the cell number change is -32.6%. In addition, the AC50 under setting [2] is 14.6 µM [falling, single point]. Under setting [1], the AC50 was 18.4 µM [falling, single point].
Take `Cc1ccc(/C=N/NC(=O)c2nnn(-c3nonc3N)c2CSc2ccccc2)s1`: the cell number change turned out to be 31.7%.
As for `CCCCCCCOC(=O)C1=C(C)Nc2ncnn2C1c1cccs1` (stereo not drawn), the cell number change is 34.7%. In addition, under setting [2], the AC50 is 1.64 µM [rising, full curve, poor fit].
On to `COc1cc(S(=O)(=O)N2CCCCCC2)c(OC)cc1Br`, for which the cell number change came to 10.2%. Besides, the AC50 under setting [1] was 1.84 µM [falling, partial curve, poor fit].
Consider `COc1ccc(C(=O)OC2CCCCC2CN(C)C)cc1` (stereo not drawn), for which the cell number change was 18.3%.
Turning to `COC(=O)C1=C(C(=O)OC)[C@@H]2N(C)c3ccccc3[C@@]23C[C@@H](C(=O)OC)N(C(=O)C2CCC2)C3=N1`, the cell number change was -17%. Also, the AC50 under setting [1] was 0.13 µM [falling, full curve, poor fit].
On to `CC1=Nc2cccc([N+](=O)[O-])c2NC(=O)C1`, for which the cell number change worked out at 78%. Besides, the AC50 under setting [2] was 6.51 µM [falling, single point]. Moreover, under setting [1], the AC50 is 6.51 µM [falling, single point].
`COc1ccc(OCC(=O)N/N=C(\C)c2ccc(OC)cc2)cc1`: the cell number change turned out to be 27.5%. Also, under setting [2], the AC50 is 1.84 µM [rising, full curve, poor fit]. Besides, the AC50 under setting [1] was 2.06 µM [rising, partial curve].
For the compound `O=C(CCCn1c(=O)c2sccc2n(Cc2cc(=O)n3ccccc3n2)c1=O)NCc1ccco1`, the AC50 is 0.326 µM [rising, full curve, poor fit] under setting [2] and 0.366 µM [rising, full curve] under setting [1].
Regarding `O=C(CN1CCN(Cc2ccccc2F)C1=O)NCCc1ccc(Cl)cc1`, the cell number change stood at 11.1%. Further, the AC50 under setting [1] is 0.0731 µM [rising, full curve, poor fit].
As for `O=c1ccccn1Cc1c(F)cccc1Cl`, the cell number change was found to be 46%. Moreover, the AC50 under setting [2] was 8.2 µM [rising, partial curve, poor fit]. The AC50 under setting [1] is 6.51 µM [rising, single point].
Consider `CCOc1ccc(CNc2ncnc(N)n2)cc1`, for which, under setting [2], the AC50 was 6.51 µM [rising, single point].
In the case of `CCN1C(=O)[C@H]2[C@@H](c3ccc(-c4ccc5c(c4)OCO5)c(OC)c3)N[C@@](CC(C)C)(C(=O)OC)[C@H]2C1=O`, the cell number change was -4.88%. Under setting [1], the AC50 is 6.51 µM [falling, single point].
Regarding `CCOc1ccccc1CNC(=O)CCCn1ccc2cc(S(=O)(=O)N3CCCC3)ccc21`, the cell number change is -37.5%. The AC50 under setting [2] was 16.4 µM [falling, single point]. For the same compound, the AC50 under setting [1] was 13 µM [falling, partial curve].
In the case of `CCOC(=O)N/N=C(/C)c1cccc(-n2cnnn2)c1`, the cell number change was -11.3%. The AC50 under setting [1] is 6.51 µM [falling, single point].
For the compound `O=[N+]([O-])c1ccccc1-c1cc(-c2ccccc2O)n[nH]1`, the AC50 was 4.11 µM [rising, single point] under setting [2] and 2.31 µM [rising, single point] under setting [1].
For `COc1ccc(NC(=O)CSCC(=O)N(C)Cc2cccc(OC)c2OC)cc1`, the cell number change came out at 25%. Also, under setting [2], the AC50 is 6.51 µM [rising, partial curve, poor fit].
Take `CCOCCCNC(=O)C(c1ccc(Cl)cc1)N1CCN(c2ccccc2)CC1` (stereo not drawn): the cell number change is 30%. Further, under setting [2], the AC50 was 1.84 µM [rising, partial curve, poor fit]. Moreover, under setting [1], the AC50 was 32.6 µM [rising, single point].
For `CCOc1ccc(CCNC(=O)c2cnc(C)cn2)cc1OCC`, the cell number change was found to be 20.9%. Under setting [1], the AC50 is 5.8 µM [rising, partial curve, poor fit].
Consider `COc1cccc(C(=O)Nc2nnc(S(=O)(=O)N3CCCC3)s2)c1`, for which the AC50 under setting [1] is 4.61 µM [falling, full curve].
For the compound `COc1ccc(C(=O)c2c(-c3cccc(C)c3)oc3ccc(N4CCOCC4)cc23)cn1`, the cell number change worked out at 4.21%. In addition, under setting [1], the AC50 is 0.58 µM [falling, single point].
For the compound `c1cncc(C2OCC3(CO2)COC(c2cccnc2)OC3)c1` (stereo not drawn), the cell number change was determined as 0.597%. Moreover, the AC50 under setting [1] is 3.66 µM [falling, single point].
On to `CCn1c(/C=C2\C(=O)Nc3ccccc32)nc2ccccc2c1=O`, for which the cell number change turned out to be 1.37%. Further, the half-maximal activity concentration (AC50) under setting [1] was 0.651 µM [falling, partial curve, poor fit].
For the compound `CCOc1cc(C(=S)N2CCCCC2)ccc1OCC(=O)NCc1ccccc1`, the AC50 under setting [1] was 6.51 µM [falling, single point].
Regarding `CCc1ccc(C2C(C(=O)O)c3ccccc3C(=O)N2C)cc1` (stereo not drawn), the cell number change is -55.8%. Also, under setting [2], the AC50 is 3.66 µM [falling, full curve]. In addition, the AC50 under setting [1] is 29.1 µM [falling, single point].
As for `COc1ccccc1CN1CC(C(=O)N2CCCCO2)CCC1=O` (stereo not drawn), the cell number change amounted to 2.59%. For the same compound, under setting [1], the AC50 is 20.6 µM [rising, partial curve].
For `Cc1ccc(OCC(=O)Nc2nnc(S(=O)(=O)N3CCCCCC3)s2)cc1`, the cell number change is 15.9%. Further, the AC50 under setting [1] is 29.1 µM [rising, single point].
For `CN(C)C(CNC(=O)c1cc(S(=O)(=O)N(C)c2ccccc2)ccc1Cl)c1ccccc1` (stereo not drawn), the cell number change is 25.5%. Moreover, the AC50 under setting [2] is 6.51 µM [rising, single point].
With `Cc1nn(C(=O)c2ccco2)c(C)c1Br`, the cell number change stood at 3.47%. Also, the AC50 under setting [1] was 4.61 µM [falling, single point].
In the case of `CN(CC(=O)Nc1ccc(Cl)c(C(F)(F)F)c1)C(=O)C1CCC1`, the AC50 under setting [1] is 18.4 µM [rising, partial curve].
`COc1ccc(CCN(Cc2cc3cccc(C)c3[nH]c2=O)C(=O)N2CCCC2)cc1OC`: the cell number change stood at 4.92%. For the same compound, the AC50 under setting [1] is 0.58 µM [rising, single point].
Turning to `COc1ccc(OC)c(-c2nc3ccccc3nc2-c2ccccc2)c1`, the cell number change is -8.02%.
Turning to `O=S(=O)(O)c1cccc(N=Nc2c(O)ccc3ccccc23)c1`, the cell number change was 17.2%.
On to `COc1ccc2nc(SCc3nc(N)nc(Nc4ccccc4)n3)[nH]c2c1`, for which the cell number change is -13.6%. Also, under setting [1], the AC50 was 10.3 µM [rising, partial curve].
Take `c1ccc(-c2noc(C3CCCCC3)n2)nc1`: the AC50 under setting [2] is 6.51 µM [rising, single point].
Consider `COc1cc(/C=C2\CCCc3c2nc2ccccc2c3C(=O)O)cc(Br)c1O`, for which the cell number change was -32.4%. The AC50 under setting [2] was 32.6 µM [falling, single point]. In addition, the AC50 under setting [1] is 6.51 µM [falling, single point].
In the case of `O=C(NCCN1CCOCC1)C1CCC(CNS(=O)(=O)c2ccccc2)CC1` (stereo not drawn), the cell number change was 7.96%. For the same compound, the AC50 under setting [1] was 29.1 µM [falling, single point].
In the case of `COc1ccc([C@@H]2[C@@H]3C(=O)N(C(C)(C)C)C(=O)[C@@H]3[C@]3(C)C(=O)N(c4cccc(F)c4)C(=O)N23)cc1`, the cell number change is 8.74%. Under setting [1], the AC50 was 29.1 µM [rising, single point].
On to `COc1ccccc1NC(=O)Nc1nc(CC(=O)NCc2ccccn2)cs1`, for which the AC50 is 1.84 µM [rising, partial curve] under setting [2] and 1.84 µM [rising, partial curve] under setting [1].
Regarding `CC(=O)Nc1ccc(OCC(O)Cn2cccn2)cc1` (stereo not drawn), the cell number change worked out at 8.42%.
`S=C(c1c[nH]c2ccccc12)N1CCCC1`: the cell number change turned out to be 4.72%. In addition, under setting [1], the AC50 was 0.651 µM [falling, single point].
On to `O=C(CCCn1c(=S)[nH]c2ccc(Br)cc2c1=O)NCc1ccccn1`, for which the cell number change is -0.494%. For the same compound, the AC50 under setting [1] was 29.1 µM [falling, single point].

For orientation: AC50 means the concentration at which the activity in the assay is half-maximal.
